Laboratory results published in the supplement of paper PMC4604168 (melanoma cell lines).
The other results are listed elsewhere or left out. Repeats are few or missing, and single values can be far off.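 The apoptosis fraction was the count of cleaved-PARP antibody-stained nuclei relative to all DNA-stained nuclei, imaged in 1,536-well plates. Screening doses were set so most cells survived, and baseline and induced cleaved-PARP levels vary greatly across cell lines.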

system: WM1745; experiment: cleaved PARP positive nuclei fraction relative to DMSO control; melanoma cells; higher = more apoptosis; details: library dose: low library concentration; 72 h

| SMILES | cleaved PARP positive nuclei fraction [%] |
| --- | --- |
| Cc1cc(Nc2cc(N3CCN(C)CC3)nc(Sc3ccc(NC(=O)C4CC4)cc3)n2)n[nH]1 [Tozasertib] + C/C(O)=C(\C#N)C(=O)Nc1cc(Br)ccc1Br [LFM-A13] (first compound 0.006 µM, partner dose 2 µM) | 96.5 |
| N.N.[Cl][Pt][Cl] [cisplatin] + O=c1cc(-c2cccc3c2Sc2ccccc2S3)oc(N2CCOCC2)c1 [KU55933] (first compound 1.6 µM, partner dose 1 µM) | 79.9 |
| Cc1cc(SCc2sc(-c3ccc(C(F)(F)F)c(F)c3)nc2C)ccc1OCC(=O)O + O=c1cc(-c2cccc3c2Sc2ccccc2S3)oc(N2CCOCC2)c1 [KU55933] (first compound 2 µM, partner dose 1 µM) | 111 |
| Cn1cc(C2=C(c3cn(C4CCN(Cc5ccccn5)CC4)c4ccccc34)C(=O)NC2=O)c2ccccc21 [Enzastaurin] + CN(c1ncccc1CNc1nc(Nc2ccc3c(c2)CC(=O)N3)ncc1C(F)(F)F)S(C)(=O)=O [PF562271] (first compound 0.8 µM, partner dose 0.08 µM) | 104 |
| CN(NC(=O)CC(=O)NN(C)C(=S)c1ccccc1)C(=S)c1ccccc1 + Cc1cc(SCc2sc(-c3ccc(C(F)(F)F)c(F)c3)nc2C)ccc1OCC(=O)O [GW0742] (first compound 0.006 µM, partner dose 2 µM) | 113 |
| C[C@]12O[C@H](C[C@]1(O)CO)n1c3ccccc3c3c4c(c5c6ccccc6n2c5c31)CNC4=O [Lestaurtinib] + COc1ccc(COc2ccc(Cc3cnc(N)nc3N)cc2OC)cc1 [GW2580] (first compound 0.004 µM, partner dose 1 µM) | 96.4 |
| C[C@]12O[C@H](C[C@]1(O)CO)n1c3ccccc3c3c4c(c5c6ccccc6n2c5c31)CNC4=O [Lestaurtinib] + C[C@@H]1CCN(C(=O)CC#N)C[C@@H]1N(C)c1ncnc2[nH]ccc12 [CP690550] (first compound 0.004 µM, partner dose 1 µM) | 174 |
| COCC[n+]1c2c(n(Cc3cnccn3)c1C)C(=O)c1ccccc1C2=O + C/C(O)=C(\C#N)C(=O)Nc1cc(Br)ccc1Br [LFM-A13] (first compound 0.0004 µM, partner dose 2 µM) | 107 |
| C[C@]12O[C@H](C[C@]1(O)CO)n1c3ccccc3c3c4c(c5c6ccccc6n2c5c31)CNC4=O [Lestaurtinib] + OCCn1cc(-c2cnc3nnn(Cc4ccc5ncccc5c4)c3n2)cn1 [PF04217903] (first compound 0.004 µM, partner dose 1 µM) | 103 |
| COc1cc([C@@H]2c3cc4c(cc3[C@@H](O[C@@H]3O[C@@H]5CO[C@@H](C)O[C@H]5[C@H](O)[C@H]3O)[C@H]3COC(=O)[C@H]23)OCO4)cc(OC)c1O [etoposide] + Cn1cc(C2=C(c3cn(C4CCN(Cc5ccccn5)CC4)c4ccccc34)C(=O)NC2=O)c2ccccc21 [Enzastaurin] (first compound 0.02 µM, partner dose 0.8 µM) | 52.7 |
| C[As](C)SC[C@H](NC(=O)CC[C@H](N)C(=O)O)C(=O)NCC(=O)O [Darinaparsin] + CN(NC(=O)CC(=O)NN(C)C(=S)c1ccccc1)C(=S)c1ccccc1 [STA4783] (first compound 0.4 µM, partner dose 0.006 µM) | 262 |

system: WM3526; experiment: as above; details: library dose: low library concentration; 72 h

| SMILES | cleaved PARP positive nuclei fraction [%] |
| --- | --- |
| N.N.[Cl][Pt][Cl] [cisplatin] + OCc1c[nH]c2ccccc12 [Indole-3-carbinol] (first compound 1.6 µM, partner dose 0.8 µM) | 85.8 |
| NC1(c2ccc(-c3nc4ccn5c(=O)[nH]nc5c4cc3-c3ccccc3)cc2)CCC1 + N.N.[Cl][Pt][Cl] [cisplatin] (first compound 0.4 µM, partner dose 1.6 µM) | 56.6 |
| Cc1cc(SCc2sc(-c3ccc(C(F)(F)F)c(F)c3)nc2C)ccc1OCC(=O)O + C/C(O)=C(\C#N)C(=O)Nc1cc(Br)ccc1Br [LFM-A13] (first compound 2 µM, partner dose 2 µM) | 191 |
| N.N.[Cl][Pt][Cl] [cisplatin] + CN1CCN(c2ccc3nc(-c4c(N)c5c(F)cccc5[nH]c4=O)[nH]c3c2)CC1 [Dovitinib] (first compound 1.6 µM, partner dose 0.1 µM) | 72.6 |
| CC1(C)NC(=O)N(c2ccc([N+](=O)[O-])c(C(F)(F)F)c2)C1=O [nilutamide] + O=C(Oc1ccc([N+](=O)[O-])cc1)N1CCC(C(O)(c2ccc3c(c2)OCO3)c2ccc3c(c2)OCO3)CC1 [JZL184] (first compound 1 µM, partner dose 1 µM) | 69 |
| O=C(/C=C/c1cccnc1)NCCCCC1CCN(C(=O)c2ccccc2)CC1 + N.N.[Cl][Pt][Cl] [cisplatin] (first compound 0.01 µM, partner dose 1.6 µM) | 26 |
| Cn1cc(C2=C(c3cn(C4CCN(Cc5ccccn5)CC4)c4ccccc34)C(=O)NC2=O)c2ccccc21 [Enzastaurin] + CC(C)CCN1c2nc(Nc3cc(F)c(O)c(F)c3)ncc2N(C)C(=O)C1C [BID1870] (first compound 0.8 µM, partner dose 0.2 µM) | 201 |
| Cn1cc(C2=C(c3cn(C4CCN(Cc5ccccn5)CC4)c4ccccc34)C(=O)NC2=O)c2ccccc21 [Enzastaurin] + O=C(Nc1cccc(Cl)c1)Nc1ncc(CCNc2ncnc3ccsc23)s1 [SNS314] (first compound 0.8 µM, partner dose 0.0008 µM) | 56.9 |
| Cc1cc(Nc2cc(N3CCN(C)CC3)nc(Sc3ccc(NC(=O)C4CC4)cc3)n2)n[nH]1 [Tozasertib] + C[As](C)SC[C@H](NC(=O)CC[C@H](N)C(=O)O)C(=O)NCC(=O)O [Darinaparsin] (first compound 0.006 µM, partner dose 0.4 µM) | 82.2 |
| C[C@]1(O)C[C@@H](c2nc(-c3ccc4ccc(-c5ccccc5)nc4c3)c3c(N)nccn32)C1 + Cc1cc(SCc2sc(-c3ccc(C(F)(F)F)c(F)c3)nc2C)ccc1OCC(=O)O [GW0742] (first compound 0.4 µM, partner dose 2 µM) | 83.4 |
| C[As](C)SC[C@H](NC(=O)CC[C@H](N)C(=O)O)C(=O)NCC(=O)O [Darinaparsin] + Oc1cc(-c2nc(-c3ccccc3)[nH]c2-c2ccncc2)ccc1Cl [L779450] (first compound 0.4 µM, partner dose 0.2 µM) | 60.2 |
| CC(=O)O[C@@]12CO[C@@H]1C[C@H](O)[C@@]1(C)C(=O)[C@H](O)C3=C(C)[C@@H](OC(=O)[C@H](O)[C@@H](NC(=O)OC(C)(C)C)c4ccccc4)C[C@@](O)([C@@H](OC(=O)c4ccccc4)[C@H]21)C3(C)C [Docetaxel] + O=C(Oc1ccc([N+](=O)[O-])cc1)N1CCC(C(O)(c2ccc3c(c2)OCO3)c2ccc3c(c2)OCO3)CC1 [JZL184] (first compound 0.0001 µM, partner dose 1 µM) | 86.9 |
| C[C@]12O[C@H](C[C@]1(O)CO)n1c3ccccc3c3c4c(c5c6ccccc6n2c5c31)CNC4=O [Lestaurtinib] + CS(=O)(=O)c1ccc(C(=O)Nc2ccc(Cl)c(-c3ccccn3)c2)c(Cl)c1 [vismodegib] (first compound 0.004 µM, partner dose 1 µM) | 230 |
| C[As](C)SC[C@H](NC(=O)CC[C@H](N)C(=O)O)C(=O)NCC(=O)O [Darinaparsin] + COc1ccc2c(c1)CCC1C2CCC2(C)C(NCCCCCCN3C(=O)C=CC3=O)CCC12 [U73122] (first compound 0.4 µM, partner dose 0.4 µM) | 57.3 |
| C=C(c1ccc(C(=O)O)cc1)c1cc2c(cc1C)C(C)(C)CCC2(C)C [Bexarotene] + C[As](C)SC[C@H](NC(=O)CC[C@H](N)C(=O)O)C(=O)NCC(=O)O [Darinaparsin] (first compound 2 µM, partner dose 0.4 µM) | 141 |
| CC(=O)O[C@@]12CO[C@@H]1C[C@H](O)[C@@]1(C)C(=O)[C@H](O)C3=C(C)[C@@H](OC(=O)[C@H](O)[C@@H](NC(=O)OC(C)(C)C)c4ccccc4)C[C@@](O)([C@@H](OC(=O)c4ccccc4)[C@H]21)C3(C)C [Docetaxel] + N.N.[Cl][Pt][Cl] [cisplatin] (first compound 0.0001 µM, partner dose 1.6 µM) | 134 |
| Cc1cc(Nc2cc(N3CCN(C)CC3)nc(/C=C/c3ccccc3)n2)n[nH]1 + O=C(Oc1ccc([N+](=O)[O-])cc1)N1CCC(C(O)(c2ccc3c(c2)OCO3)c2ccc3c(c2)OCO3)CC1 [JZL184] (first compound 0.04 µM, partner dose 1 µM) | 35.7 |
| Cn1cnc2c(F)c(Nc3ccc(Br)cc3Cl)c(C(=O)NOCCO)cc21 [selumetinib] + N.N.[Cl][Pt][Cl] [cisplatin] (first compound 0.015 µM, partner dose 1.6 µM) | 91.8 |
| C[As](C)SC[C@H](NC(=O)CC[C@H](N)C(=O)O)C(=O)NCC(=O)O [Darinaparsin] + COc1cc(N2CCC(N3CCN(C)CC3)CC2)ccc1Nc1ncc(Cl)c(Nc2ccccc2S(=O)(=O)C(C)C)n1 [NVP-TAE684] (first compound 0.4 µM, partner dose 0.08 µM) | 82.4 |

Rewritten tab-delimited: part of the list above
SMILES	cleaved PARP positive nuclei fraction [%]
N.N.[Cl][Pt][Cl] [cisplatin] + CN1CCN(c2ccc3nc(-c4c(N)c5c(F)cccc5[nH]c4=O)[nH]c3c2)CC1 [Dovitinib] (first compound 1.6 µM, partner dose 0.1 µM)	72.6
CC1(C)NC(=O)N(c2ccc([N+](=O)[O-])c(C(F)(F)F)c2)C1=O [nilutamide] + O=C(Oc1ccc([N+](=O)[O-])cc1)N1CCC(C(O)(c2ccc3c(c2)OCO3)c2ccc3c(c2)OCO3)CC1 [JZL184] (first compound 1 µM, partner dose 1 µM)	69
